Measurements: paper PMC5707401
Results are given in words; binding and its absence hold for the method and conditions named. In cells and extracts the contact can be indirect. A yes stands for co-enrichment or nearness to the bait. Other partners may have been found. For some assays here: No binding means not detected with the bait. For some assays here: Tags and fused reporters may be left off the sequences shown.

The chains behind the UniProt entries cited, without tags or fusion partners.
UniProt O95376: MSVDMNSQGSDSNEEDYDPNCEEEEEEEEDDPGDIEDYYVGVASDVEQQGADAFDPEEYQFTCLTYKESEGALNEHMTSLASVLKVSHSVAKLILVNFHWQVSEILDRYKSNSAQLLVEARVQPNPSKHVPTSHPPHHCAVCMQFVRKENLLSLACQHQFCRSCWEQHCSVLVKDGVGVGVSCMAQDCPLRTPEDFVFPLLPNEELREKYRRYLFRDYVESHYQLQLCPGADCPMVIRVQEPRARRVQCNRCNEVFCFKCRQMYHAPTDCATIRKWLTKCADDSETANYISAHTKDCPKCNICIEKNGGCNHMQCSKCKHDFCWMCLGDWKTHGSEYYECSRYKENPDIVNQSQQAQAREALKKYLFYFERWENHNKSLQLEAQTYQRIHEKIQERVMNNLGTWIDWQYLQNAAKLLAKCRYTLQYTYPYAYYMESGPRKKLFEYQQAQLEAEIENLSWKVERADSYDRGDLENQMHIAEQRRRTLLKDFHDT
UniProt Q9BXT8: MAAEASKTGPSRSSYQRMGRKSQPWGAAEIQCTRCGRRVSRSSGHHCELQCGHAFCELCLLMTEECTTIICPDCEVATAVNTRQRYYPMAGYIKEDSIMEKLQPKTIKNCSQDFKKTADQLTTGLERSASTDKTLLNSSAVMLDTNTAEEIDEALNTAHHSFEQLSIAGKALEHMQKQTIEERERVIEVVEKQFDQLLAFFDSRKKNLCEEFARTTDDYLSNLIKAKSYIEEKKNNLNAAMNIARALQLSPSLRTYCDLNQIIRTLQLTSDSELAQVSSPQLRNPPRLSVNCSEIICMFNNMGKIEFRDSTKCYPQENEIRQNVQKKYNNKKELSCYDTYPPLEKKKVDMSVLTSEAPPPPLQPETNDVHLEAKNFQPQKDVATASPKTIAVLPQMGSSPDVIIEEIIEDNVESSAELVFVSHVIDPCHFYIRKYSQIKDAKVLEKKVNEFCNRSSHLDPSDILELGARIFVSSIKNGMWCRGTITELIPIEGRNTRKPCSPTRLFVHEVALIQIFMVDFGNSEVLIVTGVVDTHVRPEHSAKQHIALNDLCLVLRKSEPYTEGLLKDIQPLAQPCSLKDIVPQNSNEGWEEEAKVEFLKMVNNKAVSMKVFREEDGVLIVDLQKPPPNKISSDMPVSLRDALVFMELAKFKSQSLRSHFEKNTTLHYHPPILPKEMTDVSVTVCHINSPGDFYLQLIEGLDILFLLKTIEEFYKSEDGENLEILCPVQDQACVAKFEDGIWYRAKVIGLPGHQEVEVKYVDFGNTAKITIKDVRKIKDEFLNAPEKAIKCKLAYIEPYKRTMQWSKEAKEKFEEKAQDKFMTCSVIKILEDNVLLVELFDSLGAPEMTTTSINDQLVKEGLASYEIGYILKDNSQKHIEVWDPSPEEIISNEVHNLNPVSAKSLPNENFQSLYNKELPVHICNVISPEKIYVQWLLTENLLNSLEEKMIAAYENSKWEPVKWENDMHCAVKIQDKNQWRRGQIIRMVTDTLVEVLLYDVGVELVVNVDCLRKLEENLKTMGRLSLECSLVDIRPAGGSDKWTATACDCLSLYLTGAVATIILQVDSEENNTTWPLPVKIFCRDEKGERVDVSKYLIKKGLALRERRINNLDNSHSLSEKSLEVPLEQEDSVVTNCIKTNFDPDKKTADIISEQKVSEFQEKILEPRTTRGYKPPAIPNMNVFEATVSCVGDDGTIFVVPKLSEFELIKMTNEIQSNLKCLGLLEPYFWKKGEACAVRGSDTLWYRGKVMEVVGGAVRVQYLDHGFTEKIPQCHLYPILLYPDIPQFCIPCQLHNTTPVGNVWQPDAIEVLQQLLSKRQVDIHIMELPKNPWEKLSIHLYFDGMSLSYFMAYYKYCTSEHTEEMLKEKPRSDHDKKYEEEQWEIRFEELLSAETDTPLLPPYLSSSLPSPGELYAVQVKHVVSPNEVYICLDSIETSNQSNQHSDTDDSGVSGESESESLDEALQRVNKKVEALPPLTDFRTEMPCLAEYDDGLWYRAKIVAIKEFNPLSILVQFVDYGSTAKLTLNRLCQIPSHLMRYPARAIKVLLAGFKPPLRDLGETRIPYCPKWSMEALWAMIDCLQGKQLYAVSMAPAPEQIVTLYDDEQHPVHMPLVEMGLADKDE
UniProt P47813: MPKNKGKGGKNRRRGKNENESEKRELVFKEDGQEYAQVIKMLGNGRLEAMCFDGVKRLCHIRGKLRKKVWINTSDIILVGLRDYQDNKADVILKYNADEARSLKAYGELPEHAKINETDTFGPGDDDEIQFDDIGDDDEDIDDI
UniProt O95602: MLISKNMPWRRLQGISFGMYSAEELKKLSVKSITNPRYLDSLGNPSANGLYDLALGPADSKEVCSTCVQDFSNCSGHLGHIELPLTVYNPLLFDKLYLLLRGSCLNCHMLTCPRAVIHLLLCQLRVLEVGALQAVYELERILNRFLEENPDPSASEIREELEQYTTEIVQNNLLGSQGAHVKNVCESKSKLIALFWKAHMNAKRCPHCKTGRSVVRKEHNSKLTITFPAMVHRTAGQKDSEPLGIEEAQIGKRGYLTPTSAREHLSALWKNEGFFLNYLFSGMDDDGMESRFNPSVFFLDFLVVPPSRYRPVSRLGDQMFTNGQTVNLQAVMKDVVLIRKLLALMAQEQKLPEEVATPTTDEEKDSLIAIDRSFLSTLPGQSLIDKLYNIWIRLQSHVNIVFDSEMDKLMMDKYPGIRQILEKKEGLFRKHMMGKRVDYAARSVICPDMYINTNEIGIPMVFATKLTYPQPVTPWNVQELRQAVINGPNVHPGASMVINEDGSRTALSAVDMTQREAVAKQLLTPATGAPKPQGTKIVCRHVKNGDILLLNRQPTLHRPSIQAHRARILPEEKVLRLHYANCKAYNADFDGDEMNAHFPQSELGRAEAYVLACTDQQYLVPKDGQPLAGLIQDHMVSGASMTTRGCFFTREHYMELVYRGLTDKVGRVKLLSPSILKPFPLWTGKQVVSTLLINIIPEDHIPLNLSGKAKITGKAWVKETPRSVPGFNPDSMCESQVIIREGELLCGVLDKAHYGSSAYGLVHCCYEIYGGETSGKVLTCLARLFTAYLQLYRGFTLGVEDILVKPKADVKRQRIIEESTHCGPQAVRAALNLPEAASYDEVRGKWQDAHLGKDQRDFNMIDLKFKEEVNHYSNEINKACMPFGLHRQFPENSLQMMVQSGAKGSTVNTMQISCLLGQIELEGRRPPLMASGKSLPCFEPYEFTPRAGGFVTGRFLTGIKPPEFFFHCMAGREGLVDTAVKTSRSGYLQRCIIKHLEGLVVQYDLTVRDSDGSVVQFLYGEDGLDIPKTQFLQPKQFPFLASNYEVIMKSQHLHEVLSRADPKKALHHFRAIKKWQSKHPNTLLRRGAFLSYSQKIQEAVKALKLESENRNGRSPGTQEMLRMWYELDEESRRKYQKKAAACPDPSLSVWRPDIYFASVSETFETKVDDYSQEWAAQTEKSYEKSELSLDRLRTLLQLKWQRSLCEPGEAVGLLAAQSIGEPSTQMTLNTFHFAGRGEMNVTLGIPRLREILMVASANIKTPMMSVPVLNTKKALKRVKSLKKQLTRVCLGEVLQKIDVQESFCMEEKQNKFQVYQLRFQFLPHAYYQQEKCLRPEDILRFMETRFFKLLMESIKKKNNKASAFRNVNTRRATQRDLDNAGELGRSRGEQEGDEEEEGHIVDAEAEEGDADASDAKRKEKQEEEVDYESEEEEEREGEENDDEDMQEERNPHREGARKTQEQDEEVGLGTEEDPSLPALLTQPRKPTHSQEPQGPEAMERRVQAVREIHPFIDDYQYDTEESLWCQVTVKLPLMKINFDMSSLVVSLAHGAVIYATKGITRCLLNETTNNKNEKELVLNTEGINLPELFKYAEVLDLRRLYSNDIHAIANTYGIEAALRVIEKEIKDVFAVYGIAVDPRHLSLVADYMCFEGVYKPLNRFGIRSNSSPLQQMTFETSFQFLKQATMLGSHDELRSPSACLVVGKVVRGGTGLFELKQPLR
UniProt O14802: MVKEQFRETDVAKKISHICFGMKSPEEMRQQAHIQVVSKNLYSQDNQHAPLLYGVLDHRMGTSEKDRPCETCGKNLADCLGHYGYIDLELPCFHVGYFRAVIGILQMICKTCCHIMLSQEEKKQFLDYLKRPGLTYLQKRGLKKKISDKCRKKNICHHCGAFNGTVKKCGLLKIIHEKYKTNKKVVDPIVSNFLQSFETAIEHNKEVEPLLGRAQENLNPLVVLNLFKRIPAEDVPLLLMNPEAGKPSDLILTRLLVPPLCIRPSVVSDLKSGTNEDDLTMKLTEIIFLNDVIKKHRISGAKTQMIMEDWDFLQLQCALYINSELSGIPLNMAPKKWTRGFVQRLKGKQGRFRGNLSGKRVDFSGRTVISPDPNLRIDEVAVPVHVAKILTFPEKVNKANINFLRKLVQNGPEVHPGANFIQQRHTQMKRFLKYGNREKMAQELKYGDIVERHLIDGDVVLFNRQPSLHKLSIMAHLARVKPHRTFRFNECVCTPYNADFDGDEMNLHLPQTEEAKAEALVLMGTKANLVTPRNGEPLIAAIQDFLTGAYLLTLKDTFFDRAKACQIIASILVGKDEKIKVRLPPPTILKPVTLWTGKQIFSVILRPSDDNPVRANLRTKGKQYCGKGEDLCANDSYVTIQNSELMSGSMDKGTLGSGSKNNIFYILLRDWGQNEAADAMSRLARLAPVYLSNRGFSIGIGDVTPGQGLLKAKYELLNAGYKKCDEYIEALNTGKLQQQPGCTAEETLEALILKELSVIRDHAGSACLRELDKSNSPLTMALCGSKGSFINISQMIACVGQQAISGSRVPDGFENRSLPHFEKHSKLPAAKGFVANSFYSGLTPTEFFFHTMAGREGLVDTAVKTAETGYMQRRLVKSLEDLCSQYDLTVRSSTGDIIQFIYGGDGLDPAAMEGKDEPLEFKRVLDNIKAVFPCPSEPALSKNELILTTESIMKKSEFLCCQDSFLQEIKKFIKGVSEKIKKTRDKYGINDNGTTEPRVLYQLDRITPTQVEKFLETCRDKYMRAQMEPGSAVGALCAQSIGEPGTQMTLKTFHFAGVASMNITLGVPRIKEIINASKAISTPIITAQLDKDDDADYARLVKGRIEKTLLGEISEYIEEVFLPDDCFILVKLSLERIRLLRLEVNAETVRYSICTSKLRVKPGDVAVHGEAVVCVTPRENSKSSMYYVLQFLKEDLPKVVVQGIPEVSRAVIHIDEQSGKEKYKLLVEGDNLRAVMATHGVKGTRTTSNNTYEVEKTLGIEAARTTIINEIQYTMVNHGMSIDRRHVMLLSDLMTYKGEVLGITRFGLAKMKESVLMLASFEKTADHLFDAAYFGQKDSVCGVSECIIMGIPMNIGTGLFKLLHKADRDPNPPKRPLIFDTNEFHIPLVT
UniProt Q5VTR2: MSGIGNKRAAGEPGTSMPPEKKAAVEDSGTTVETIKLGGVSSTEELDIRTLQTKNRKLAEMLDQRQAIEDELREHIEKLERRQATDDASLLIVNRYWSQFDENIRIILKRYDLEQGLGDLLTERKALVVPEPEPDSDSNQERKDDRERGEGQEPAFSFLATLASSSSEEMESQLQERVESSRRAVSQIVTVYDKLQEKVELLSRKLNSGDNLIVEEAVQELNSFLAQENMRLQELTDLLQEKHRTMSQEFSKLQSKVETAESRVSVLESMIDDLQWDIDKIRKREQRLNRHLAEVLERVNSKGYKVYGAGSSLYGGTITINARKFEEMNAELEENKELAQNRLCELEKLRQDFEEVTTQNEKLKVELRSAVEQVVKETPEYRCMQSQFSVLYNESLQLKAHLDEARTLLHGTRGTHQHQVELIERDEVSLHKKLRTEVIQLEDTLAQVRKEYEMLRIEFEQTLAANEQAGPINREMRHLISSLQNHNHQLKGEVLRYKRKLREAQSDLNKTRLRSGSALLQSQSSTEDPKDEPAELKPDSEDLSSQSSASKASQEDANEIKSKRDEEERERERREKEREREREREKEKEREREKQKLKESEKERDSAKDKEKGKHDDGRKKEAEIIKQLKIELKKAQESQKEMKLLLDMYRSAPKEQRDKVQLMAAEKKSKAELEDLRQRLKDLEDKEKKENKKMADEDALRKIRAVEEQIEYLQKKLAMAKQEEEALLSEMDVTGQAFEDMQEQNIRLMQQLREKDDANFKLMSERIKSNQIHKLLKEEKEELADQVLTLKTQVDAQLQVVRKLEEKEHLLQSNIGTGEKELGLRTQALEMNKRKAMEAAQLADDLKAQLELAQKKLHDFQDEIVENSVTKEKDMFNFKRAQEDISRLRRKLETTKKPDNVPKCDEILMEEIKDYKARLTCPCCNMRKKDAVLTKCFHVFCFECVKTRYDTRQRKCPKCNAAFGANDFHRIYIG
UniProt P05387: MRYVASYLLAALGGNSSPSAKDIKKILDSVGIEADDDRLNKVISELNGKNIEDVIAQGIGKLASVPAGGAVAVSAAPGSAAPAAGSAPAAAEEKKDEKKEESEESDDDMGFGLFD

T1: GFP-tagged MEX3B (human) (UniProt Q6ZN04)
T1 sequence: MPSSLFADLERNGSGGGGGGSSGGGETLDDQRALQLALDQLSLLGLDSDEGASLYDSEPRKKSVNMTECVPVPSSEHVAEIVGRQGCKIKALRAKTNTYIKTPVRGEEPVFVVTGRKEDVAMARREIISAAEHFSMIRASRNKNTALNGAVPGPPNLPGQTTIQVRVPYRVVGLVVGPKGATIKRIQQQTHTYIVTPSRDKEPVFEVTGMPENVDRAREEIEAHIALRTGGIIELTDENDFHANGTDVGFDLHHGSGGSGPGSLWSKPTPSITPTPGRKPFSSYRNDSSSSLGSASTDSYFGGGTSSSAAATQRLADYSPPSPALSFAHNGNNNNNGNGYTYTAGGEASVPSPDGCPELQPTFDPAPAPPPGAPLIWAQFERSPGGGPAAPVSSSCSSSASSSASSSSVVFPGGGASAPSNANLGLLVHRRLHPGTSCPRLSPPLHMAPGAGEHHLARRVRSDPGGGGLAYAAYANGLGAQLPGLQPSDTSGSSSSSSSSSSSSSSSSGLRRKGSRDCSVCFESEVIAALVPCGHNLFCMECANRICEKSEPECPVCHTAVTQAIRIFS

T2: GFP-tagged MKRN1 (human) (UniProt Q9UHC7)
T2 sequence: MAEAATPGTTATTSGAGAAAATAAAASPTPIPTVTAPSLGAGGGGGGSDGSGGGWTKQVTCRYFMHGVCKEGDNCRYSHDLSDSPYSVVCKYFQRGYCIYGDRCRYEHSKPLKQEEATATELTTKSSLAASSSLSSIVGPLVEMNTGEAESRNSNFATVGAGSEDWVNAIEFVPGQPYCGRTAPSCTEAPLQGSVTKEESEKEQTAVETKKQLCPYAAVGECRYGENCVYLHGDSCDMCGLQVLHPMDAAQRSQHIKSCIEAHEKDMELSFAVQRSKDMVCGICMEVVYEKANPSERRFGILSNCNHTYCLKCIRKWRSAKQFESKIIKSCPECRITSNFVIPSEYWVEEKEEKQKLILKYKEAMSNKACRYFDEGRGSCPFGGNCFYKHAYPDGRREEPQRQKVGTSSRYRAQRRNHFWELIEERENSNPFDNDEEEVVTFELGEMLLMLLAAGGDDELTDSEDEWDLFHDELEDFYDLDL

T3: GFP-tagged MKRN2 (human) (UniProt Q9H000)
T3 sequence: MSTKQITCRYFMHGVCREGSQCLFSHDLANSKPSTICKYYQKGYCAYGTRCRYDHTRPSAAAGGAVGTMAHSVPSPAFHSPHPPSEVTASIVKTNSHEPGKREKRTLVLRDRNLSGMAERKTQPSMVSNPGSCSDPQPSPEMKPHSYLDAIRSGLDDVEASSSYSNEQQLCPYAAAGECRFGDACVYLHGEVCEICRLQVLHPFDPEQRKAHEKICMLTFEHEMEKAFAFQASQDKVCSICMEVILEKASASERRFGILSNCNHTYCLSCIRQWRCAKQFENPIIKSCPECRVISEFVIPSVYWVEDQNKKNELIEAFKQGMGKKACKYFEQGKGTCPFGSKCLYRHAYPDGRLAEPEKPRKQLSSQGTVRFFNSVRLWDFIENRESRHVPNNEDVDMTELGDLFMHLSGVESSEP

T4: GFP-tagged PRPF19 (human), Q9UMS4
T4 chain: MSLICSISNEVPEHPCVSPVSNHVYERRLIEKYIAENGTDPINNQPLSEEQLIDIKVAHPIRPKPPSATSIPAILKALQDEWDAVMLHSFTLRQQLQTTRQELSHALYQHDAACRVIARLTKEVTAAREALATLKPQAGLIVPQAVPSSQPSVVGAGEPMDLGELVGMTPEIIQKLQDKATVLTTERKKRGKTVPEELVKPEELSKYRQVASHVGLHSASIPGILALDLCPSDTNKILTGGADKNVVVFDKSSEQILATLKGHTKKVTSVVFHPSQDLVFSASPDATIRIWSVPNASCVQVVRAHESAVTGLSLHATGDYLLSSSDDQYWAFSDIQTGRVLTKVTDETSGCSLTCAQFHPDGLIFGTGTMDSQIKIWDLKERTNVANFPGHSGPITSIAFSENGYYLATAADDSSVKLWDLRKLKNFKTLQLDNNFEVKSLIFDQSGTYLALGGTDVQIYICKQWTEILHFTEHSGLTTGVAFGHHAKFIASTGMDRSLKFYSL

B1: MID1 (protein, UniProt O15344 1-667)
chain: METLESELTCPICLELFEDPLLLPCAHSLCFNCAHRILVSHCATNESVESITAFQCPTCRHVITLSQRGLDGLKRNVTLQNIIDRFQKASVSGPNSPSETRRERAFDANTMTSAEKVLCQFCDQDPAQDAVKTCVTCEVSYCDECLKATHPNKKPFTGHRLIEPIPDSHIRGLMCLEHEDEKVNMYCVTDDQLICALCKLVGRHRDHQVAALSERYDKLKQNLESNLTNLIKRNTELETLLAKLIQTCQHVEVNASRQEAKLTEECDLLIEIIQQRRQIIGTKIKEGKVMRLRKLAQQIANCKQCIERSASLISQAEHSLKENDHARFLQTAKNITERVSMATASSQVLIPEINLNDTFDTFALDFSREKKLLECLDYLTAPNPPTIREELCTASYDTITVHWTSDDEFSVVSYELQYTIFTGQANVVSLCNSADSWMIVPNIKQNHYTVHGLQSGTKYIFMVKAINQAGSRSSEPGKLKTNSQPFKLDPKSAHRKLKVSHDNLTVERDESSSKKSHTPERFTSQGSYGVAGNVFIDSGRHYWEVVISGSTWYAIGLAYKSAPKHEWIGKNSASWALCRCNNNWVVRHNSKEIPIEPAPHLRRVGILLDYDNGSIAFYDALNSIHLYTFDVAFAQPVCPTFTVWNKCLTIITGLPIPDHLDCTEQLP
B2: transcriptional repressor ZGPAT (protein, UniProt Q8N5A5 1-531)
chain: MDEESLESALQTYRAQLQQVELALGAGLDSSEQADLRQLQGDLKELIELTEASLVSVRKSSLLAALDEERPGRQEDAEYQAFREAITEAVEAPAAARGSGSETVPKAEAGPESAAGGQEEEEGEDEEELSGTKVSAPYYSSWGTLEYHNAMVVGTEEAEDGSAGVRVLYLYPTHKSLKPCPFFLEGKCRFKENCRFSHGQVVSLDELRPFQDPDLSSLQAGSACLAKHQDGLWHAARITDVDNGYYTVKFDSLLLREAVVEGDGILPPLRTEATESDSDSDGTGDSSYARVVGSDAVDSAQSSALCPSLAVVGSDAVDSGTCSSAFAGWEVHTRGIGSRLLTKMGYEFGKGLGRHAEGRVEPIHAVVLPRGKSLDQCVETLQKQTRVGKAGTNKPPRCRGRGARPGGRPAPRNVFDFLNEKLQGQAPGALEAGAAPAGRRSKDMYHASKSAKRALSLRLFQTEEKIERTQRDIRSIQEALARNAGRHSVASAQLQEKLAGAQRQLGQLRAQEAGLQQEQRKADTHKKMTEF
B3: SNRNPD40 (protein, UniProt Q96DI7 1-357)
chain: MIEQQKRKGPELPLVPVKRQRHELLLGAGSGPGAGQQQATPGALLQAGPPRCSSLQAPIMLLSGHEGEVYCCKFHPNGSTLASAGFDRLILLWNVYGDCDNYATLKGHSGAVMELHYNTDGSMLFSASTDKTVAVWDSETGERVKRLKGHTSFVNSCYPARRGPQLVCTGSDDGTVKLWDIRKKAAIQTFQNTYQVLAVTFNDTSDQIISGGIDNDIKVWDLRQNKLTYTMRGHADSVTGLSLSSEGSYLLSNAMDNTVRVWDVRPFAPKERCVKIFQGNVHNFEKNLLRCSWSPDGSKIAAGSADRFVYVWDTTSRRILYKLPGHAGSINEVAFHPDEPIIISASSDKRLYMGEIQ
B4: PRPF3, O43395 1-683 (protein)
chain: MALSKRELDELKPWIEKTVKRVLGFSEPTVVTAALNCVGKGMDKKKAADHLKPFLDDSTLRFVDKLFEAVEEGRSSRHSKSSSDRSRKRELKEVFGDDSEISKESSGVKKRRIPRFEEVEEEPEVIPGPPSESPGMLTKLQIKQMMEAATRQIEERKKQLSFISPPTPQPKTPSSSQPERLPIGNTIQPSQAATFMNDAIEKARKAAELQARIQAQLALKPGLIGNANMVGLANLHAMGIAPPKVELKDQTKPTPLILDEQGRTVDATGKEIELTHRMPTLKANIRAVKREQFKQQLKEKPSEDMESNTFFDPRVSIAPSQRQRRTFKFHDKGKFEKIAQRLRTKAQLEKLQAEISQAARKTGIHTSTRLALIAPKKELKEGDIPEIEWWDSYIIPNGFDLTEENPKREDYFGITNLVEHPAQLNPPVDNDTPVTLGVYLTKKEQKKLRRQTRREAQKELQEKVRLGLMPPPEPKVRISNLMRVLGTEAVQDPTKVEAHVRAQMAKRQKAHEEANAARKLTAEQRKVKKIKKLKEDISQGVHISVYRVRNLSNPAKKFKIEANAGQLYLTGVVVLHKDVNVVVVEGGPKAQKKFKRLMLHRIKWDEQTSNTKGDDDEESDEEAVKKTNKCVLVWEGTAKDRSFGEMKFKQCPTENMAREHFKKHGAEHYWDLALSESVLESTD

Columns and labels:
Assay in all cases: affinity purification with mass spectrometry; adapted SILAC-based AP: heavy-labelled HEK293T cells expressing the GFP-tagged RBUL mixed in equal amounts with light-labelled cells expressing GFP before lysis in mRIPA buffer; GFP-trap agarose beads, 1 h at 4 °C; on-bead trypsin digest, LC-MS/MS; putative interactors at mean z-score ≥ 2
[1] = target: GFP-tagged ARIH2 (human) (UniProt O95376)
[2] = target: GFP-tagged PRPF19 (human) (UniProt Q9UMS4)
[3] = target: T1, GFP-tagged MEX3B (human)
[4] = target: GFP-tagged RNF17 (human) (UniProt Q9BXT8)
[5] = target: T2, GFP-tagged MKRN1 (human)
[6] = target: T3, GFP-tagged MKRN2 (human)
[7] = target: T4, GFP-tagged PRPF19 (human), Q9UMS4; conditions: remark: other sources report otherwise

Row | Molecule | binding [1] | binding [2] | binding [3] | other results
1 | EIF1AX (from UniProt P47813 1-144) | binds | – | – | –
2 | EIF4G1 (from UniProt Q04637 1-1599) | – | binds | binds | –
3 | HUWE1 (from UniProt Q7Z6Z7 1-4374) | – | binds | binds | –
4 | POLR1A (from UniProt O95602 1-1720) | – | – | binds | –
5 | POLR1C (from UniProt O15160 1-346) | – | – | binds | –
6 | POLR3A (from UniProt O14802 1-1390) | binds | binds | binds | –
7 | RNF20 (from UniProt Q5VTR2 1-975) | binds | – | – | –
8 | RPLP2 (from UniProt P05387 1-115) | – | – | – | binding [4]: binds
9 | TNRC6A (from UniProt Q8NDV7 1-1962) | – | – | binds | –
10 | ubiquitin-dependent co-chaperone VCP (from UniProt P55072 1-806) | binds | binds | binds | binding [5]: binds; binding [4]: binds; binding [6]: binds
11 | B1 | binds | – | – | –
12 | B2 | – | – | binds | –
13 | B3 | – | binds | – | –
14 | B4 | – | – | – | binding [7]: no binding
